Assay results from paper PMC5724017.
No constants are given. Whether binding was seen depends on the method and setting. In cells and extracts the contact can be indirect. A yes stands for co-enrichment or nearness to the bait. Other partners may have been found.

Amino acid sequences for entries named in this document (tags omitted). A change or cut given only in a name is not applied to a line headed by its entry.
UniProt Q57W34: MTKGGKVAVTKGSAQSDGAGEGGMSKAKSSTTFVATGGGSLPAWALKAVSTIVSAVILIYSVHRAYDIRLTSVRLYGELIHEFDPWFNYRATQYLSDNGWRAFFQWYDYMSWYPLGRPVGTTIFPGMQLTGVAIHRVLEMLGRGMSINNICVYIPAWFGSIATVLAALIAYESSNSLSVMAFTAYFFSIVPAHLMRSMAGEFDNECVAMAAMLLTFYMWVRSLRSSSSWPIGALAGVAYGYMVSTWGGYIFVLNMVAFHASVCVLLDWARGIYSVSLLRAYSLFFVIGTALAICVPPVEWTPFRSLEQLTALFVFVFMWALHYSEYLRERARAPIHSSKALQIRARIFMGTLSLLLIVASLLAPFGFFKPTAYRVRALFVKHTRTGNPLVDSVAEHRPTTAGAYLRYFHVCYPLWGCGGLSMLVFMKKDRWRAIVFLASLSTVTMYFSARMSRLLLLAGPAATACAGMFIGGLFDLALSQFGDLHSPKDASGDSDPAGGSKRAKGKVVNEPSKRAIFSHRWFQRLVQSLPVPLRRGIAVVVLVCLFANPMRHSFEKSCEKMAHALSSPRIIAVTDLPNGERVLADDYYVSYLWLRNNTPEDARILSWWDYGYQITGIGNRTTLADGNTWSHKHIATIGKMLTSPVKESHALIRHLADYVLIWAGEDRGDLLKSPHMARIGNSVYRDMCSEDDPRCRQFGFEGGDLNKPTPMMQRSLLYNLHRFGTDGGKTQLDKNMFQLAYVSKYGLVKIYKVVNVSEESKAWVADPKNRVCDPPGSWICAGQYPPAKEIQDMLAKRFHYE
UniProt Q57W35: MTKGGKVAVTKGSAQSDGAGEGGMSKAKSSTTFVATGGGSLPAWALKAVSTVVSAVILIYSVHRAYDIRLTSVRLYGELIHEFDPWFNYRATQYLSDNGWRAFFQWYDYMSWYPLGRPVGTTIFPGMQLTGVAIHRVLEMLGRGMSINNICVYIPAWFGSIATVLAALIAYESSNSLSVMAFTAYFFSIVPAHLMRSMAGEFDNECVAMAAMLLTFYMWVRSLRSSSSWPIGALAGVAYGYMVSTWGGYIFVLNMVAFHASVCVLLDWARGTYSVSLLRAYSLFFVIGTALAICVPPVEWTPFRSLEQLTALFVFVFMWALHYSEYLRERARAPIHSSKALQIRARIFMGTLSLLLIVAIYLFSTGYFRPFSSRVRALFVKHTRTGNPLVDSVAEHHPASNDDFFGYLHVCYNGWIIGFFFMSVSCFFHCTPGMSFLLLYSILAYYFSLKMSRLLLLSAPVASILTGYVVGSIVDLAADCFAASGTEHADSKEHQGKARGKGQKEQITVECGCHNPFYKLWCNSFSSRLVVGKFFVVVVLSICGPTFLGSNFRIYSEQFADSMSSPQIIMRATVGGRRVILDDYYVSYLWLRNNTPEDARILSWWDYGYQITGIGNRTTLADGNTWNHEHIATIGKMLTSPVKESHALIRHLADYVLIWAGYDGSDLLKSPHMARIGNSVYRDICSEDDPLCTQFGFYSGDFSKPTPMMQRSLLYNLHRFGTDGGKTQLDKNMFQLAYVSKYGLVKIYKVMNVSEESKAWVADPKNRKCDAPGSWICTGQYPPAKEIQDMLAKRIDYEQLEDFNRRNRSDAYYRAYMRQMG

Target: TbSTT3A-HA3 (Trypanosoma brucei) (UniProt Q57W34)
Assay: affinity purification with mass spectrometry; SILAC: TbSTT3A-HA3 cells (heavy, R6K4) and wild-type cells (light, R0K0) mixed 1:1, lysed in 0.5% digitonin; anti-HA antibody and protein G magnetic beads; LC-MS/MS of the eluate

binding: binds
Substance: TbSTT3B (from UniProt Q57W35) (enzyme)
